Read-outs that look alike come from different tables or passages of the source. Results are given in words; binding and its absence hold for the method and conditions named. In cells and extracts the contact can be indirect. Some entries that bind do so weakly or less than the wild type. For some of these results: Sequences can lack the tags named with a protein.
B1: AGL15 fused to CFP or YFP (protein, UniProt Q38847 1-268)
chain: MGRGKIEIKRIENANSRQVTFSKRRSGLLKKARELSVLCDAEVAVIVFSKSGKLFEYSSTGMKQTLSRYGNHQSSSASKAEEDCAEVDILKDQLSKLQEKHLQLQGKGLNPLTFKELQSLEQQLYHALITVRERKERLLTNQLEESRLKEQRAELENETLRRQVQELRSFLPSFTHYVPSYIKCFAIDPKNALINHDSKCSLQNTDSDTTLQLGLPGEAHDRRTNEGERESPSSDSVTTNTSSETAERGDQSSLANSPPEAKRQRFSV

The chains behind the UniProt entries cited, without tags or fusion partners.
UniProt P29382: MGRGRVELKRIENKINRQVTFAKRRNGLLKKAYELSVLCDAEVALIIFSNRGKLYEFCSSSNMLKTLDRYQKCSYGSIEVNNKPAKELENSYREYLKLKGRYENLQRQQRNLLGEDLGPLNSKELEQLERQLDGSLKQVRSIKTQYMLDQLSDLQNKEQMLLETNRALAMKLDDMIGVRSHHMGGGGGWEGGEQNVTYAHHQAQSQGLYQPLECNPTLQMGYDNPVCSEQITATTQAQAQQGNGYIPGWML
UniProt P29386: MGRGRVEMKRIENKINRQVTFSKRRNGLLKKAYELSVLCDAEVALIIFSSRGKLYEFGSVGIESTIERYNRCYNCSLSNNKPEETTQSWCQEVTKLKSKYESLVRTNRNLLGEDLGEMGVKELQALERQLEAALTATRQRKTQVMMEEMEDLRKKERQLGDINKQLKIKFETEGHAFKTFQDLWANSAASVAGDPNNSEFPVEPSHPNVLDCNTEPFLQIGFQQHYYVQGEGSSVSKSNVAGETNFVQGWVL
UniProt Q9FIS1: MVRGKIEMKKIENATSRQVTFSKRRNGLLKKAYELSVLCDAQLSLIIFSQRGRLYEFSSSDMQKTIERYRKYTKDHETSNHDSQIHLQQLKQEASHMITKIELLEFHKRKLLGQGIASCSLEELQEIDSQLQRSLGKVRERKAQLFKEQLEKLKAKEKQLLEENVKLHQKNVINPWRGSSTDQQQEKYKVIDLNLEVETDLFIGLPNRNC

Legend:
[1] = target: SEP1 fused to YFP (Arabidopsis thaliana) (UniProt P29382); experiment: FRET or BRET; competition: FRET efficiency of FYF-CFP/SEP1-YFP in tobacco cells with 0, 25, 75 and 100% of unlabeled FYL2 added; mean of n > 4
[2] = target: SEP1 fused to YFP (Arabidopsis thaliana) (UniProt P29382); experiment: FRET or BRET; pairs of one CFP (CyPet) and one YFP (YPet) fusion co-expressed in tobacco (N. benthamiana) leaf cells; signals in the nucleus by confocal microscopy, 440 nm excitation; FRET efficiency = FRET/CFP, mean of n > 4; steady-state scatter of pFRET against FRET efficiency
[3] = target: AGL6 fused to YFP or CFP (Arabidopsis thaliana) (UniProt P29386); experiment: as above
[4] = target: AGL6 fused to YFP or CFP (Arabidopsis thaliana) (UniProt P29386); experiment: as above; remark: listed apart in the source

Molecule	binding [1]	binding [2]	binding [3]	binding [4]
FOREVER YOUNG FLOWER (FYF) fused to CFP or YFP (from UniProt Q9FIS1 1-210)	binds	binds	binds	–
B1	–	–	–	binds
